From patent US20170204184A1
Substitutions are numbered along the chain they refer to. No constants are given. Whether binding was seen depends on the method and setting. Some binding calls cover weakened binding; strength is not graded here.

The chains behind the UniProt entries cited, without tags or fusion partners. Residues count along the entry.
UniProt Q9NZQ7, residues 19-290: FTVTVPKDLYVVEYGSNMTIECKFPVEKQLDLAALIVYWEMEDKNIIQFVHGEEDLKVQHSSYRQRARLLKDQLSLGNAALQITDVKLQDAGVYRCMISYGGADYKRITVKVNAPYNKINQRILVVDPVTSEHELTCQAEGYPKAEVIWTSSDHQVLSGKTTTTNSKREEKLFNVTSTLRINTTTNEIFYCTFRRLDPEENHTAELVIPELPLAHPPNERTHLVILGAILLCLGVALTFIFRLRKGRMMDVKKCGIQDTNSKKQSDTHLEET

B1: m4A8 (antibody, V domains shown)
VH: QVQLKQSGPGLVQPSQSLSITCTVSGFSLTSYGVHWVRQSPGKGLEWLGVIWSGGITDYNAAFKSRLSISKDNSKSQVFFKMNSLQANDTAIYFCARLGFYAMDYWGQGTSVTVSS
VL: QIVLTQSPAIMSASPGEKVTMTCSANSSVSYMHWYQQKSGTSPKRWIYDTSKLASGVPARFSGSGSGTSYSLTISSMGAEDAATYYCQQWSSNPWTFGGGTKLEIK
B2: m15F1 (antibody, V domains shown)
VH: EEKLVESGGGLVKPGGSLKLSCAASGFSFSSYGMSWVRQTPEKRLEWVASISSGGSIYYPDSVKGRFTISRDNARNILYLQMSSLRSEDTAMYYCARGYDAGFAFWGQGTLVTASA
VL: DIVLTQSPASLAVSLGQRATISCRASQSVSTSSYSYVHWYQQKPGQPPKLLIKYASNLESGVPARFSGSGSGTDFTLNIHPVEEEDTATYYCQHSWEIPYTFGGGTKLEIK
B3: m13C5 (antibody, V domains shown)
VH: B2 VH with E2V, S28I, S30R, I57T, Y94D, A101S, F105Y, A114V, A116E
VL: DIVLTQSPASLAVSLGQRATISCRASQSVSTSSSSFMHWYQQKPGQPPKLLIKYASNLESGVPARFSGSGSGTDFTLNIHPVEEEDTATYYCQHSWEIPYTFGGGTKLEIKR
B4: m8H4 (antibody, V domains shown)
VH: EVKLVESGGGLVKPGGSLKLSCAASGFTFRSYGMSWARQIPEKRLEWVASISSGGTTYYLGSVQGRFTISRDNARNILYLQMSSLRSEDTAMYYCARGYDAGFAYWGQGTLVSVSE
VL: B2 VL with V37M, H94N
B5: m5G11 (antibody, V domains shown)
VH: B1 VH with S31T, S53R, G55V, I56T, K64M, S68T, S70T, F94Y
VL: SIVMTQTPKFLLVSAGDRVTITCKASQSVSNDVAWYQQKPGQSPKLLIYYAANRYTGVPDRFTGSGYGTDFTFTISIVQAEDLAVYFCQQDYTSPYTFGGGTKLEIK
B6: m8C6 (antibody, V domains shown)
VH: B1 VH with I56V, K64I, F94Y
VL: B5 VL with A34G, A52S, T56S, I77T
B7: m5G9 (antibody, V domains shown)
VH: B4 VH with A37V, I40T, L60P, G61D, Q64K, T68I, R97K, A101S, S113I, E116A
VL: B2 VL with A9P, Y34S, V37M
B8: m7B4 (antibody, V domains shown)
VH: EVKLFESGGGLVQPGGSLKLSCVASGFDFSTYWMHWVRQAPGQGLEWIGQINPDSTTINYAPSLKDRFIISRDNAKNTLFLQMSKVRSEDTALYYCAKPGDYGYDFDCWGQGTTLTVSS
VL: DVLMTQTPLYLPVSLGDQASISCRSSQIIVHSNANTYLEWFLQKPGQSPKLLIYKVSNRFSGVPDRFSGSGSGTDFTLKISRVEAEDLGVYYCFQGSHVPYTFGGGTKLEIK
B9: ch8C6-hIgG4 (antibody, V domains shown)
VH: B1 VH with I56V, K64I, F94Y
VL: SIVMTQTPKFLLVSAGDRVTITCKASQSVSNDVGWYQQKPGQSPKLLIYYASNRYSGVPDRFTGSGYGTDFTFTISTVQAEDLAVYFCQQDYTSPYTFGGGTKLEIKR
B10: ch8H4-hIgG4 (antibody, V domains shown)
VH: B4 VH with E116S
VL: B3 VL with S34Y, F36Y, H94N

Legend:
[1] = target: PD-L1 on 293T cells (UniProt Q9NZQ7); assay: flow cytometry on PD-L1-293T cells
[2] = target: PD-L1 on 293T cells (UniProt Q9NZQ7); assay: flow cytometry blocking: biotinylated PD-1 binding to PD-L1-293T cells, MFI
[3] = target: PD-L1 on 293T cells (UniProt Q9NZQ7); assay: flow cytometry on PD-L1-293T cells, MFI

Row | Binder | binding [1] | binding [2] | binding [3]
1 | B1 | binds | binds | binds
2 | B2 | binds | binds | binds
3 | B3 | binds | binds | binds
4 | B4 | binds | binds | binds
5 | B5 | binds | binds | binds
6 | B6 | binds | binds | binds
7 | B7 | binds | binds | binds
8 | B8 | binds | binds | binds
9 | B9 |  | binds | 
10 | B10 |  | binds | 
